Results taken from PMC5727183.
No constants are given. Whether binding was seen depends on the method and setting. Binding seen in cells or lysates may run through a third protein. Binding calls can cover weak binding; strength is not graded here.

Amino acid sequences for entries named in this document (tags omitted). A change or cut given only in a name is not applied to a line headed by its entry.
UniProt P61956: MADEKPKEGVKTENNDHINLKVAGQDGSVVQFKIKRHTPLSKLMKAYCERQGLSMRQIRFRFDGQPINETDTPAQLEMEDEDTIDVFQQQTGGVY
UniProt Q5UIP0: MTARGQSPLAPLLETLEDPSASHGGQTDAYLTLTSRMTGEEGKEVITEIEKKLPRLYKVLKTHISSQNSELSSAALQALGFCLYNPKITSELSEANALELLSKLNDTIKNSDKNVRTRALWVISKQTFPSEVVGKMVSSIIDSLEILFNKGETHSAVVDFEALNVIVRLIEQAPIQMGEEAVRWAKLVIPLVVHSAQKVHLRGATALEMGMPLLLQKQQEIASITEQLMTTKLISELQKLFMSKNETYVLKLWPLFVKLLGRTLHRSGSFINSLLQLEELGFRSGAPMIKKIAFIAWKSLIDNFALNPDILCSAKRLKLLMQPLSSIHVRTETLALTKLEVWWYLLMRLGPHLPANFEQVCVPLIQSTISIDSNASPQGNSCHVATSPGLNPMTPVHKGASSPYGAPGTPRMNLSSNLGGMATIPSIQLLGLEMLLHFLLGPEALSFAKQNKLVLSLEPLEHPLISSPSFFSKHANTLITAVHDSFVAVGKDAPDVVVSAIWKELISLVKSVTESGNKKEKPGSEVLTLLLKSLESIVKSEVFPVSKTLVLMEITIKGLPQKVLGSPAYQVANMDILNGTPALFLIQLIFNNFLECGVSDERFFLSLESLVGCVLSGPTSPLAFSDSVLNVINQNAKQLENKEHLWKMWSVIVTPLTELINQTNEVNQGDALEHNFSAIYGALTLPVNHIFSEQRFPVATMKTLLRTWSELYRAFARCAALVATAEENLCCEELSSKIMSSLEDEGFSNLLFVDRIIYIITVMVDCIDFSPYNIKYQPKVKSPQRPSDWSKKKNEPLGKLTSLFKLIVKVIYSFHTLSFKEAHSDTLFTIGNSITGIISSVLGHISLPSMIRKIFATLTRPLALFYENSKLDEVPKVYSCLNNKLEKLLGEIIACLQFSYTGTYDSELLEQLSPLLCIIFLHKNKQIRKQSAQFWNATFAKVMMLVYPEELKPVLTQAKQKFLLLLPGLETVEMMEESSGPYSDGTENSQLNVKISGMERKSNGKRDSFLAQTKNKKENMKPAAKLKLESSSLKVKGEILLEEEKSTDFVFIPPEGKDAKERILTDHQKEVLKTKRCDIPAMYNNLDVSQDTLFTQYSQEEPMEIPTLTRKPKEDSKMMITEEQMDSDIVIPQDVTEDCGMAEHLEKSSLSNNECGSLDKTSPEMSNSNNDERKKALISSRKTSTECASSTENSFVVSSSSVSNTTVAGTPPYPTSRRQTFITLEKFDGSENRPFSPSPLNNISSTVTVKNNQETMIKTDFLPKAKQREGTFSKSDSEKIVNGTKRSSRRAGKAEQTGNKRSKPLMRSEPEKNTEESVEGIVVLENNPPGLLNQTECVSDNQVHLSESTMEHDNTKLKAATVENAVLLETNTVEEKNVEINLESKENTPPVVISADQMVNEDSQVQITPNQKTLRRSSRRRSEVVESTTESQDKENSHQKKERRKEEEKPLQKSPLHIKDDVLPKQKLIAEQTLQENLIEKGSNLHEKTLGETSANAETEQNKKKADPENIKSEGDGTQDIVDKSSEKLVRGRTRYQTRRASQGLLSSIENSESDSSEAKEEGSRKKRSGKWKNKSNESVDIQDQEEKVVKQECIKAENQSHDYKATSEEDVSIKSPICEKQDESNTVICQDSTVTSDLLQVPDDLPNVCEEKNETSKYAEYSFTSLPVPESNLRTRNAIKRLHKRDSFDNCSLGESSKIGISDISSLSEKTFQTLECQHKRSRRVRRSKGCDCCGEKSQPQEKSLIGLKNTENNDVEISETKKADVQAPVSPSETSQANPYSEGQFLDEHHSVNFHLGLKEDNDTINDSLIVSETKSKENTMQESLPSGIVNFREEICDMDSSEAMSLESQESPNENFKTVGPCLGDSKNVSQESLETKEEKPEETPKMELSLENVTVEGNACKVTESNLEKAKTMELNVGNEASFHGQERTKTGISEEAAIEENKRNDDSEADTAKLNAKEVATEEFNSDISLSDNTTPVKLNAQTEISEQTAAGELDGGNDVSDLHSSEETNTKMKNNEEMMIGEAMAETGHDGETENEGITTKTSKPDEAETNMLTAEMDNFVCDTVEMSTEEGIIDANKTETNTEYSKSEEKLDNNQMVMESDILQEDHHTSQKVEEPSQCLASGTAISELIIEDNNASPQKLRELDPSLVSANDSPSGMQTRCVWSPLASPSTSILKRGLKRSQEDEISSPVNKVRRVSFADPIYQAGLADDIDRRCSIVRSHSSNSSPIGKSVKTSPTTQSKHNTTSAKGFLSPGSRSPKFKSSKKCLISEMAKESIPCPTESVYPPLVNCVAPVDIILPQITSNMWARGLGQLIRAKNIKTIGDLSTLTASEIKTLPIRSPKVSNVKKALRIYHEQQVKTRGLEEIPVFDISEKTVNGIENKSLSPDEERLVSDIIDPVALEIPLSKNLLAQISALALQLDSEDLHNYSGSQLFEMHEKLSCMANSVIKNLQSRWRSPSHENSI

Target: RFP-SUMO2 (UniProt P61956)
Test: co-IP; RFP-Trap A beads (Chromotek) on lysates of U2OS cells transfected with RFP-SUMO2, RFP-SUMO3 or RFP empty vector, mock or 2.5 µg/ml bleocin; EBC buffer (50 mM Tris pH 7.3, 0.5% NP-40, 1 mM MgCl2, 50 mM iodoacetamide), Benzonase, NaCl brought to 300 mM; blot with RIF1 antibody

binding: binds
Substance: RIF1 (from UniProt Q5UIP0 1-2472)
